## Results of single-concentration screens

By UniProt entry, the sequences of proteins in these tests, tags left out.
UniProt P9WPC5, whole entry: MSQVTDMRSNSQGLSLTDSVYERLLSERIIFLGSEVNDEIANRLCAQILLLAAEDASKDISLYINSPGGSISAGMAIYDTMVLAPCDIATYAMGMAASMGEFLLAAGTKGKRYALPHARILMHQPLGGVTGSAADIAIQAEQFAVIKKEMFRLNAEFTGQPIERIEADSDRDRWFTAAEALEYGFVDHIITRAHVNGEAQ
UniProt P9WPC3, whole entry partner: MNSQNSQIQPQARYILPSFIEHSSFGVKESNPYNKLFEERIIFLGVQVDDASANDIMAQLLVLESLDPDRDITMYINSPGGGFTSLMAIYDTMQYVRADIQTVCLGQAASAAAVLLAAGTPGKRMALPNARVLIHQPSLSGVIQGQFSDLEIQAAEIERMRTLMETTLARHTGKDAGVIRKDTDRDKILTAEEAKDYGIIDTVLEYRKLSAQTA
UniProt I6X8D2, whole entry: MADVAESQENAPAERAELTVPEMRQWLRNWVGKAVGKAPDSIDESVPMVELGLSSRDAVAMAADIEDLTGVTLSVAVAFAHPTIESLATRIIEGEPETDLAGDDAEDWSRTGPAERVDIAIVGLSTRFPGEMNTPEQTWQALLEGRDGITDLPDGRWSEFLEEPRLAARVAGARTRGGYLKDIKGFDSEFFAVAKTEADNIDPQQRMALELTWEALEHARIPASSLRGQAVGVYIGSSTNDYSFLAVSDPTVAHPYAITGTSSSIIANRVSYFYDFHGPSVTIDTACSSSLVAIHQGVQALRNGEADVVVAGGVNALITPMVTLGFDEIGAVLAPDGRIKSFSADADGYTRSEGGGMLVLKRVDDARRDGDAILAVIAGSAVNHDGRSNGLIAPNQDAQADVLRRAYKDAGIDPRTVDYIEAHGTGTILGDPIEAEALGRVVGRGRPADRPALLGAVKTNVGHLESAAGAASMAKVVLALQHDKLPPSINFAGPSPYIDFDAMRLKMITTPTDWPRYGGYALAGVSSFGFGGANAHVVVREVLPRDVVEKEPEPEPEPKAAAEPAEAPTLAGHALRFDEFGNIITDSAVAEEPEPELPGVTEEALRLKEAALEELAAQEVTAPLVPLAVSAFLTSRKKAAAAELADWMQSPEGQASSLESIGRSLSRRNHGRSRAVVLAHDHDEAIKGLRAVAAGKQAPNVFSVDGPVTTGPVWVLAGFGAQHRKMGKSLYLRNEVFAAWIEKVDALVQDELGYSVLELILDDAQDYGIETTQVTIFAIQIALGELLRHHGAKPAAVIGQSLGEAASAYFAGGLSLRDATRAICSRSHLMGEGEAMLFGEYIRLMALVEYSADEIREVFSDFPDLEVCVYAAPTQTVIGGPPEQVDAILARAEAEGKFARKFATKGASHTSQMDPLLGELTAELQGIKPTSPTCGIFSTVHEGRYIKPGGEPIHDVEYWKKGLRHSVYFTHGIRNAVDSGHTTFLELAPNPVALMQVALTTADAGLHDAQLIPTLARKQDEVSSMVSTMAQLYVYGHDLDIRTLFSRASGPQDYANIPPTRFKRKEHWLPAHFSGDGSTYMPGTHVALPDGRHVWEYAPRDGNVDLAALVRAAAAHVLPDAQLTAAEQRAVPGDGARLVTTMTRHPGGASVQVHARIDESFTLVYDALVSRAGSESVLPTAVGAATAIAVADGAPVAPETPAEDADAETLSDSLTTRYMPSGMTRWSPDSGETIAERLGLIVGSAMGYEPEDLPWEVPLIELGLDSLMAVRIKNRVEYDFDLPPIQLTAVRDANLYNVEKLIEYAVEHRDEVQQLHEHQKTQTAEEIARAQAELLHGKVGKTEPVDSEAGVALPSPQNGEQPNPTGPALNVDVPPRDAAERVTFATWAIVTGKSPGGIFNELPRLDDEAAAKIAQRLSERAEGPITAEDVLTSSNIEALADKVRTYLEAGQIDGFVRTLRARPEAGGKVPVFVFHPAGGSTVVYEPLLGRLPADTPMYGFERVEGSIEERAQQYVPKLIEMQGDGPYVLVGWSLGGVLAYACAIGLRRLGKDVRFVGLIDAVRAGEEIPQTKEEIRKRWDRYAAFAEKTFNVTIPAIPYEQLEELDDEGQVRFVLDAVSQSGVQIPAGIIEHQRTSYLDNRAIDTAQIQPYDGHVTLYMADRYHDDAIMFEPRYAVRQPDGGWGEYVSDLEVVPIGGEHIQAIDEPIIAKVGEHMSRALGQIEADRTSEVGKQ
UniProt P9WFT3, whole entry: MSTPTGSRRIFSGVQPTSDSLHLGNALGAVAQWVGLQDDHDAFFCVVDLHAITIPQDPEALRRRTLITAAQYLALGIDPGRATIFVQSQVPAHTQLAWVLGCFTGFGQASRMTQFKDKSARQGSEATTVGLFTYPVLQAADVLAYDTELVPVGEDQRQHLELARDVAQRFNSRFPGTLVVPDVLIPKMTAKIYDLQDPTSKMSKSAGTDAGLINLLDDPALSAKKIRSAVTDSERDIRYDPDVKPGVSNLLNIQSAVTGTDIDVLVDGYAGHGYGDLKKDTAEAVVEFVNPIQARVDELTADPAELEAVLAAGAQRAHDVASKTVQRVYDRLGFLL

Measurements from “University of Dundee, Small-Polar-MMV Screening Library” (2021), ChEMBL document CHEMBL3988442.

Results are given as percent effect. How 0% and 100% were set is not recorded. Most values in the screen are low, and negative values occur. Compounds were drawn at random from those tested, without regard to their results.

ClpP1P2: 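Protease assay of ClpP1P2, read by the AMC dye that it sets free. Target: ClpP1P2, Mycobacterium tuberculosis (UniProt P9WPC5 and UniProt P9WPC3). Compounds at 50 µM. Direction is inferred from only a few compounds that gave an IC50; most scored high, so higher reads as stronger inhibition. Most other retested compounds had strongly negative values. Of about 69,000 compounds tested this way, about 10 (0.015%) reached 50% or more in at least one test.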
Pks13 thioesterase: 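Enzyme assay of the thioesterase domain of polyketide synthase 13; the read-out is not stated. Target: Polyketide synthase Pks13, Mycobacterium tuberculosis (UniProt I6X8D2). Compounds at 30 µM. Higher reads as stronger inhibition (inferred from which compounds were picked for retests). Of about 67,000 compounds tested this way, about 300 (0.46%) reached 50% or more in at least one test.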
MtTrpRS: 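Tryptophan-tRNA ligase, Mycobacterium tuberculosis (UniProt P9WFT3). Enzyme assay of tryptophanyl-tRNA synthetase; the read-out is not stated. Tested at 10 µM. Higher most likely means stronger inhibition; the record gives no direction and few retests gave an IC50. Of about 65,000 compounds tested this way, about 64 (0.098%) reached 50% or more in at least one test.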

Result for COc1cccc(OCC(=O)N2CCOc3ccncc32)c1 was ClpP1P2: -10.17%; Pks13 thioesterase: -27.36%; MtTrpRS: -1.264%. With Cc1[nH]c2ccc(CNc3cc(C#N)ccn3)cc2c1C the screen gave ClpP1P2: -9.825%; Pks13 thioesterase: 1.031%; MtTrpRS: 0%. CCc1nc(CN2CCN(C(=O)c3csc(C(C)C)n3)CC2)no1 read ClpP1P2: 12.43%; Pks13 thioesterase: 19.91%; MtTrpRS: -0.07468%. With Cn1ccc(C(=O)Nc2nc(-c3ccc(Cl)cc3)n[nH]2)cc1=O the screen gave ClpP1P2: -20.92%; Pks13 thioesterase: -2.931%; MtTrpRS: 2.42%. CC(C(=O)NCCc1ccc2c(c1)OCCO2)n1cncn1 (centres unmarked) gave ClpP1P2: 9.543%; Pks13 thioesterase: -5.119%; MtTrpRS: 6.056%. Result for CNCC(=O)N1CCCC(c2cccc(Nc3nc(C)cc(C)n3)n2)C1 (centres unmarked) was ClpP1P2: 19.96%; Pks13 thioesterase: -7.625%; MtTrpRS: 3.261%. With Cc1occc(=O)c1OCc1noc(C(=O)NC2CCCC2)n1 the screen gave ClpP1P2: -2.499%; Pks13 thioesterase: -6.248%; MtTrpRS: 3.099%. Result for CC[C@H](Cn1ncc2ccccc2c1=O)NC(=O)c1cnc(C)cn1 was ClpP1P2: -3.259%; Pks13 thioesterase: 9.253%; MtTrpRS: -6.512%.

COc1nn(C)c2c1CCCN(C(=O)c1cc[nH]n1)C2 gave ClpP1P2: 6.032%; Pks13 thioesterase: -17.87%; MtTrpRS: -0.6103%. COCCN1CCC(c2nc3ccc(NC(C)C)cn3n2)CC1 gave ClpP1P2: -9.7%; Pks13 thioesterase: 4.263%; MtTrpRS: -1.245%. Result for COC(=O)c1cccc(C(=O)NCc2ccc(C)o2)n1 was ClpP1P2: -10.23%; Pks13 thioesterase: 1.028%; MtTrpRS: 2.522%. CCC[C@@H](NC(N)=O)C(=O)N1CCc2ccccc2CC1 gave ClpP1P2: 2.585%; Pks13 thioesterase: -24.32%; MtTrpRS: -4.335%. Result for CN(C)C(=O)N1CCC2(CC1)CN(CC1CC1)CC21CCNC1=O (centres unmarked) was ClpP1P2: -10.14%; Pks13 thioesterase: -29.11%; MtTrpRS: 0.08085%. CC(C)c1nnc(CN2CCCc3ccc(S(N)(=O)=O)cc32)o1 read ClpP1P2: -12.38%; Pks13 thioesterase: -12.76%; MtTrpRS: -2.352%. With COc1ccccc1OC1CCN(Cc2ccc(N(C)C)nc2)CC1 the screen gave ClpP1P2: -20.97%; Pks13 thioesterase: -26.21%; MtTrpRS: 2.967%. COc1ccc(CNC(C)c2cnn(C)c2)cc1OC1CCCC1 (centres unmarked) read ClpP1P2: -6.933%; Pks13 thioesterase: -8.045%; MtTrpRS: -3.936%.

COc1cc(S(=O)(=O)N2CCCc3ccccc32)cc(C(=O)O)c1OC read ClpP1P2: -5.835%; Pks13 thioesterase: -13.42%; MtTrpRS: -0.2534%. CCn1ccnc1CN1CCCN(C(=O)Cc2ccc(F)cc2)CC1 gave ClpP1P2: -7.811%; Pks13 thioesterase: -27.29%; MtTrpRS: 21.18%. Result for Cc1ccc2[nH]c(=O)cc(C(=O)N[C@@H]3C[C@@H](CO)N(C)C3)c2c1 was ClpP1P2: -57.3%; Pks13 thioesterase: 4.261%; MtTrpRS: -4.855%. Result for CC(=O)N1CCC2(CC1)CC(C(C)C)=NO2 was ClpP1P2: -13.99%; Pks13 thioesterase: -10.37%; MtTrpRS: -4.754%. With COC1CCN(CCNc2ncc(Br)cc2C)CC1 the screen gave ClpP1P2: 11.82%; Pks13 thioesterase: -16.87%; MtTrpRS: -4.935%. Result for c1ccc(-c2ccc(CN3CCOC(Cn4cncn4)C3)cc2)cc1 (centres unmarked) was ClpP1P2: -10.05%; Pks13 thioesterase: 7.661%; MtTrpRS: 15.7%. Result for CN1CC2(CCCN(Cc3nnc(-c4ccco4)o3)CC2)OC1=O (centres unmarked) was ClpP1P2: -1.561%; Pks13 thioesterase: 62.44%; MtTrpRS: -2.102%. CC(C)=CCN1CCN(CCCc2ccccc2)[C@H]2CS(=O)(=O)C[C@H]21 read ClpP1P2: -8.108%; Pks13 thioesterase: -31.72%; MtTrpRS: -4.728%.

With NC(=O)CC1CCN(C(=O)NCc2ccc(-c3ccn[nH]3)cc2)CC1 the screen gave ClpP1P2: -31.24%; Pks13 thioesterase: -3.243%; MtTrpRS: -2.861%. O=C(c1cccc(Cl)c1)N1CCCC2(CCCNC2)C1 (centres unmarked) read ClpP1P2: -0.991%; Pks13 thioesterase: -14.31%; MtTrpRS: -7.455%. COc1ccnc(N2CCN(C(=O)c3cc(C4CC4)[nH]n3)CC2)n1 read ClpP1P2: -14.65%; Pks13 thioesterase: -9.759%; MtTrpRS: -2.902%. Result for CC(C)c1nnc2n1CCN(C(=O)COc1ccc(C(N)=O)cc1)C2 was ClpP1P2: -9.227%; Pks13 thioesterase: -11.54%; MtTrpRS: 3.173%. Result for COc1ccc2c(c1)c(C(=O)Nc1nnn[nH]1)cn2C was ClpP1P2: 1.779%; Pks13 thioesterase: -22.82%; MtTrpRS: 3.288%. For COc1ccc(S(=O)(=O)NCc2cccnc2N(C)C)cc1F the result was ClpP1P2: 9.57%; Pks13 thioesterase: -40.32%; MtTrpRS: 0.7081%. With Cc1cc(N2CCN(C(=O)CCc3scnc3C)CC2)nc(N)n1 the screen gave ClpP1P2: -8.954%; Pks13 thioesterase: -9.879%; MtTrpRS: -1.325%. For CCC(NC(=O)NCc1nncn1CC)c1ccc(OC)cc1 (centres unmarked) the result was ClpP1P2: 12.06%; Pks13 thioesterase: -16.29%; MtTrpRS: -6.027%.

Once more, the final 2:

| structure | ClpP1P2 | Pks13 thioesterase | MtTrpRS |
|---|---|---|---|
| `Cc1cc(N2CCN(C(=O)CCc3scnc3C)CC2)nc(N)n1` | -8.954 | -9.879 | -1.325 |
| `CCC(NC(=O)NCc1nncn1CC)c1ccc(OC)cc1` (centres unmarked) | 12.06 | -16.29 | -6.027 |